From PubChem BioAssay AID2685 (National Center for Advancing Translational Sciences (NCATS), 2010)
This is one part of the list. Shown are side measurements of this screen, not its main read-out; they come without a call. The list favours compounds with an active or inconclusive main result. The note in brackets gives the kind of curve behind each potency; many fits are weak.

Assay: qHTS Assay for Lipid Storage Modulators in Drosophila S3 Cells;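 as to cell number change: cells counted by Cell Tracker Red CMTPX staining in the red channel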
Settings: BODIPY lipid droplet fluorescence, 18-24 h; for cell number change: measured here: cell count max response, cells fed with added oleic acid
Outline: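 Drosophila S3 cells got compounds at several concentrations plus oleic acid (400 uM solution). Laser-scanning cytometry with 488 nm excitation read lipid droplets at 500-530 nm and cells at 575-640 nm. Percent activity was relative to 20 uM Triacsin C.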

[1] = measured here: cell number channel AC50, cells fed with added oleic acid
[2] = measured here: lipid fluorescence (Fed channel) AC50, cells fed with added oleic acid

Structure (SMILES)	cell number change	AC50 [1]	AC50 [2]
COc1ccc(CC(C)NS(=O)(=O)c2ccc3c(c2)CCN3S(C)(=O)=O)cc1OC (stereo not drawn)	-3.04%	1.84 µM [rising, partial curve, poor fit]	–
O=c1oc(-c2cccnc2)nc2ccccc12	6.23%	–	0.0517 µM [falling, full curve, poor fit]
COc1cccc(-c2nc(CS(=O)(=O)CC(=O)NC3CCCc4ccccc43)c(C)o2)c1 (stereo not drawn)	9.22%	–	25.9 µM [rising, single point]
Cc1noc(C)c1S(=O)(=O)N(CC(=O)NCc1ccc(F)cc1)c1ccc(C(C)C)cc1	-0.472%	–	29.1 µM [falling, single point]
CCOC(=O)C1CCCN(c2nc3ccccc3nc2NS(=O)(=O)c2ccc(C)cc2)C1 (stereo not drawn)	37.1%	13 µM [rising, partial curve, poor fit]	9.2 µM [rising, partial curve]
Cc1cc(C)nc(SCC(=O)OCC(=O)N(C)c2c(N)n(Cc3ccccc3)c(=O)[nH]c2=O)n1	9.41%	–	29.1 µM [rising, single point]
N#CC1=C(N)C(C#N)(C#N)[C@H](c2ccncc2)[C@H]2CN(C(=O)OCc3ccccc3)CC=C12	-24%	–	8.2 µM [falling, partial curve]
CC(OC(=O)C1CCCC1)C(=O)Nc1ccc(S(N)(=O)=O)cc1 (stereo not drawn)	-18.9%	–	–
Cc1cc(Cl)cc(C)c1OCCCCN1CCOCC1	-27.1%	–	0.326 µM [falling, partial curve, poor fit]
Cc1ccc(S(=O)(=O)N(C)c2ccc(NS(C)(=O)=O)cc2)cc1	-0.718%	–	29.1 µM [falling, single point]
Cc1ccc(-c2nn(C(C)(C)C)c3ncnc(NS(=O)(=O)c4ccc([N+](=O)[O-])cc4)c23)cc1	6%	–	0.116 µM [rising, full curve, poor fit]
COc1ccc(CC(=O)Nc2ccc(S(=O)(=O)N3CCOCC3)cc2)cc1	-30.3%	5.8 µM [falling, partial curve, poor fit]	0.00517 µM [falling, full curve, poor fit]
CCCN(CCC)C(=O)c1ccc2c(=O)n(Cc3ccco3)c(=S)[nH]c2c1	-7.57%	0.0146 µM [rising, full curve]	0.731 µM [rising, partial curve, poor fit]
CCc1ccc(/C=C2\SC(=S)N(CCCC(=O)Nc3ccc(C(=O)O)cc3)C2=O)cc1	-20.1%	–	29.1 µM [falling, single point]
CC(=O)N1CCCN(C(=O)c2ccc3nc(Cc4ccccc4F)oc3c2)CC1	26.1%	–	29.1 µM [rising, single point]
CN(C)S(=O)(=O)N1CCN(C(=O)N(c2ccccc2)c2ccccc2)CC1	–	–	0.184 µM [rising, full curve, poor fit]
C=CCNC(=O)COc1cc(C)ccc1C	1.72%	–	0.082 µM [falling, full curve, poor fit]
CCc1ccccc1NC(=O)CSc1nnc(CCNC(=O)OC(C)(C)C)o1	16%	–	29.1 µM [rising, single point]
COC(=O)c1ccc(C2NC(=S)N(c3ccccc3)C(C)=C2C(=O)Nc2ccccc2OC)cc1 (stereo not drawn)	–	0.0259 µM [rising, full curve, poor fit]	1.64 µM [rising, partial curve]
CC1C(=O)Nc2ccccc2N1C(=O)c1ccc(F)cc1F (stereo not drawn)	6.31%	–	20.6 µM [falling, single point]
COc1ccc(N(CC(=O)NCc2ccc3c(c2)OCO3)C(=O)c2csnn2)cc1	–	–	0.103 µM [falling, partial curve, poor fit]
O=c1cc(-c2ccccc2)[nH]c2cc(F)ccc12	17.7%	–	18.4 µM [rising, single point]
COc1ccc(C(=O)COC(=O)c2cc(=O)[nH]c3ccccc23)c(OC)c1	-48.6%	13 µM [falling, partial curve]	5.17 µM [falling, single point]
Cc1ccc(NS(=O)(=O)c2ccc3c(c2)oc(=O)n3C)cc1	21.1%	–	29.1 µM [rising, single point]
Cc1cc(N/N=C2/CCCc3ccccc32)nc2ccccc12	-62.3%	32.6 µM [falling, single point]	29.1 µM [falling, single point]
COc1cccc(NC(=O)COc2cc(C)cc3oc(=O)cc(C)c23)c1	39.1%	29.1 µM [rising, single point]	–
CCc1ccc(NC(=O)N(Cc2cccnc2)Cc2ccco2)cc1	-6.96%	0.13 µM [rising, full curve, poor fit]	0.13 µM [rising, full curve, poor fit]

Structure (SMILES)	cell number change	AC50 [1]	AC50 [2]
Cc1ccc(Sc2ccc(NC(=O)CCl)cc2)c(C)c1	-62.5%	25.9 µM [falling, partial curve]	32.6 µM [falling, single point]
Cc1ccccc1N(CC(=O)N/N=C/c1ccc(F)cc1)C(=O)c1ccccc1	27.3%	0.82 µM [rising, full curve, poor fit]	5.8 µM [rising, single point]
Cc1cccc(NC(=O)C2CC(O)CN2C(=O)Oc2ccccc2)c1 (stereo not drawn)	50%	29.1 µM [rising, partial curve, poor fit]	–
O=C(c1cc2cc(F)ccc2[nH]1)N1CCN(Cc2ccc3c(c2)OCO3)CC1	–	–	20.6 µM [falling, single point]
CN(C)c1ccc(/C=N/NC(=O)COc2ccccc2)cc1	61.8%	23.1 µM [rising, single point]	–
CCN(CC)CCCn1c2c(c(SCC(=O)Nc3ccc(C)c(F)c3)nc1=O)CCC2	102%	16.4 µM [rising, single point]	–
O=C(NNS(=O)(=O)c1ccccc1[N+](=O)[O-])c1cc2ccccc2cc1O	19.7%	1.3 µM [rising, full curve, poor fit]	0.13 µM [rising, partial curve, poor fit]
N#Cc1ccccc1S(=O)(=O)N1CCN(CC(O)CN2CCOCC2)CC1 (stereo not drawn)	-13.6%	0.13 µM [falling, partial curve, poor fit]	0.366 µM [falling, partial curve]
O=C(c1ccco1)c1cn(CC(=O)N2CCCCCC2)c2ccccc12	-23%	–	6.51 µM [falling, single point]
COc1ccc(CCNCc2csc3nc4ccccc4n23)cc1OC	-46.6%	25.9 µM [falling, single point]	23.1 µM [falling, partial curve]
CC(C)OCCCNc1ncc2c(n1)CC(c1ccc(N(C)C)cc1)CC2=O (stereo not drawn)	2.43%	–	6.51 µM [rising, partial curve]
Cn1c(=O)c2c(nc(Oc3ccccc3Br)n2C)n(C)c1=O	26.6%	–	29.1 µM [rising, single point]
Cn1c(=NC(=O)COc2ccccc2)sc2cc(F)cc(F)c21	4.41%	0.0651 µM [rising, full curve, poor fit]	0.259 µM [rising, full curve]
Cc1ccc(C(C(=O)NC2CCCC2)N(C(=O)c2csnn2)C2CCCC2)o1 (stereo not drawn)	-4.15%	–	–
CCCc1cc(C(=O)Nc2cnn(Cc3ccc(F)cc3)c2)no1	19.9%	–	4.61 µM [rising, partial curve]
CC(C)NC(=S)N1CCN(S(=O)(=O)c2cccc(C(F)(F)F)c2)CC1	4.31%	–	–
NC(=O)c1ccc[n+](CC(=O)OCCC23CC4CC(CC(C4)C2)C3)c1	-10.9%	–	0.411 µM [falling, full curve, poor fit]
CCN1CCN(c2nc(N)c([N+](=O)[O-])c(Nc3ccc(C)cc3)n2)CC1	47.8%	16.4 µM [rising, single point]	0.517 µM [falling, single point]
Cc1ccc(C(=O)c2ncc[nH]2)cc1	25.5%	0.411 µM [rising, full curve, poor fit]	0.731 µM [rising, partial curve, poor fit]
CN(NC(=O)c1ccc(Cl)cc1)c1ncc(C(F)(F)F)cc1Cl	17.7%	–	2.06 µM [rising, full curve, poor fit]
CC(C)C(=O)N1CCN(c2ccc(NC(=S)NC(=O)c3cc4ccccc4o3)cc2)CC1	43.8%	29.1 µM [rising, single point]	29.1 µM [rising, single point]
O=C(CSc1nnc(CCCN2C(=O)c3cccc4cccc(c34)C2=O)n1-c1ccccc1)NCCCN1CCOCC1	–	–	9.2 µM [rising, partial curve]
O=C(Nc1nnc(-c2ccccc2Cl)o1)c1ccc(S(=O)(=O)N2CCCCCC2)cc1	-15.3%	–	–
CC1Cc2nc(SCC(=O)N3CCCC3)n(C)c(=O)c2S1 (stereo not drawn)	49.8%	–	–
CCCSc1nc2c(cnn2-c2ccc(F)cc2)c(=O)[nH]1	6.03%	–	6.51 µM [falling, single point]
O=C(CSc1n[nH]c(-c2cccnc2)n1)Nc1ccnc2ccccc12	0.84%	–	–
CCOC(=O)CSc1nc2ccccc2c(=O)n1CCCCCC(=O)NCc1ccco1	0.982%	–	1.64 µM [rising, partial curve]

A section from the list above, as a working copy:
Structure (SMILES)	cell number change	AC50 [1]	AC50 [2]
Cn1c(=NC(=O)COc2ccccc2)sc2cc(F)cc(F)c21	4.41%	0.0651 µM [rising, full curve, poor fit]	0.259 µM [rising, full curve]
Cc1ccc(C(C(=O)NC2CCCC2)N(C(=O)c2csnn2)C2CCCC2)o1 (stereo not drawn)	-4.15%	–	–
CCCc1cc(C(=O)Nc2cnn(Cc3ccc(F)cc3)c2)no1	19.9%	–	4.61 µM [rising, partial curve]
